Laboratory results as given in the supplement of paper PMC10849652.
The other results are listed elsewhere or left out.

By UniProt entry, the sequences of proteins in these tests, tags left out. Where a name states a change or a piece, a line headed by the entry shows the natural chain unless it says otherwise.
UniProt Q9NY61: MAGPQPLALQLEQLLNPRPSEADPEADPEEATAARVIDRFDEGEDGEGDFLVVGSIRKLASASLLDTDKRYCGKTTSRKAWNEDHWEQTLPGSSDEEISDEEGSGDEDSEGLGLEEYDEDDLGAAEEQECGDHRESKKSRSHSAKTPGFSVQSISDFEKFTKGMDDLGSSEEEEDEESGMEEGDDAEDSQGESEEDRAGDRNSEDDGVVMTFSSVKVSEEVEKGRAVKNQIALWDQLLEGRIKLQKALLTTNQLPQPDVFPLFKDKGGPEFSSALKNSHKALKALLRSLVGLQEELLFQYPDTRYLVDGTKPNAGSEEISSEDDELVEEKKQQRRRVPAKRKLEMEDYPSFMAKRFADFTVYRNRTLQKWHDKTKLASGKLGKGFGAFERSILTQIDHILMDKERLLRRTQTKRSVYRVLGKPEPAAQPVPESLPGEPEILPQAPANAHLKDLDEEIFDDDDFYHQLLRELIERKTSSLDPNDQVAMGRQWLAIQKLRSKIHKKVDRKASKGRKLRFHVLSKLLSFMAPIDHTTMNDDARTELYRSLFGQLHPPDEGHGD
UniProt Q9P1F3: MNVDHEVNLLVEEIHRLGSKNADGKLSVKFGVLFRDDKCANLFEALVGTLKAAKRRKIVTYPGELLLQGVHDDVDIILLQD
UniProt Q96P50: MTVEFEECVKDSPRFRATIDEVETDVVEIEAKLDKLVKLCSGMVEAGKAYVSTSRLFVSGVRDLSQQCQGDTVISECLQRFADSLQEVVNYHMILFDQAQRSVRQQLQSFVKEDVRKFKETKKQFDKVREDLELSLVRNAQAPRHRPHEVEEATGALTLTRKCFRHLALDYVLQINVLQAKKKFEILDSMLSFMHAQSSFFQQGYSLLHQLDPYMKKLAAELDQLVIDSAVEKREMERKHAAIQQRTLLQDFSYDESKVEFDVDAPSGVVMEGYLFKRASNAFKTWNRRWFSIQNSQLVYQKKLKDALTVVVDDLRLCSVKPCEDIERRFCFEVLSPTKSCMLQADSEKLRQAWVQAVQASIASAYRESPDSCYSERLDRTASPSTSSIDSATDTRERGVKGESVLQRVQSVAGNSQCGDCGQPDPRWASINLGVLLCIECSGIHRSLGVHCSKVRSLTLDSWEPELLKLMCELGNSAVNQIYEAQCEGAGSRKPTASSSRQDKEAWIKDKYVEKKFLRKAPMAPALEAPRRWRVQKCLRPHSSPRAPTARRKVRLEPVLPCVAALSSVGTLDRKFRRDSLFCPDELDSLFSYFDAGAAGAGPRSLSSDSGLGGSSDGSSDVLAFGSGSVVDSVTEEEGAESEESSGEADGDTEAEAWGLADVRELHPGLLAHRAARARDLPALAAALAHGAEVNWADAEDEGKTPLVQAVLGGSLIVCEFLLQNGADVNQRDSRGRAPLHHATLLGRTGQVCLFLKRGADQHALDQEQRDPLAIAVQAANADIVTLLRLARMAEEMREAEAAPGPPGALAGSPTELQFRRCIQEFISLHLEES
UniProt Q96AP0: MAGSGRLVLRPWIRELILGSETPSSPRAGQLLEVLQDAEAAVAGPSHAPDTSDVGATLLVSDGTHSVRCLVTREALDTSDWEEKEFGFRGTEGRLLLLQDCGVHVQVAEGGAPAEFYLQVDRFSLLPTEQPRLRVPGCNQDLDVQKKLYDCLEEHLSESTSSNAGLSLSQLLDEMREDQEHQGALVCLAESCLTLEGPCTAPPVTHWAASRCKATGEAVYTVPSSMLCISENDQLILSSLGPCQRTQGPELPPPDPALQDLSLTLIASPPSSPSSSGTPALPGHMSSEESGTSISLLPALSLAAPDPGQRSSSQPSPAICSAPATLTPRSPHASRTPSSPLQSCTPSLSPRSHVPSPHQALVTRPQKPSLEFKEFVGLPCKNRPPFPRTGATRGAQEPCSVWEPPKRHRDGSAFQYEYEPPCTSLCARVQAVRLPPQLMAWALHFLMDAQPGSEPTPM
UniProt Q6UXT9: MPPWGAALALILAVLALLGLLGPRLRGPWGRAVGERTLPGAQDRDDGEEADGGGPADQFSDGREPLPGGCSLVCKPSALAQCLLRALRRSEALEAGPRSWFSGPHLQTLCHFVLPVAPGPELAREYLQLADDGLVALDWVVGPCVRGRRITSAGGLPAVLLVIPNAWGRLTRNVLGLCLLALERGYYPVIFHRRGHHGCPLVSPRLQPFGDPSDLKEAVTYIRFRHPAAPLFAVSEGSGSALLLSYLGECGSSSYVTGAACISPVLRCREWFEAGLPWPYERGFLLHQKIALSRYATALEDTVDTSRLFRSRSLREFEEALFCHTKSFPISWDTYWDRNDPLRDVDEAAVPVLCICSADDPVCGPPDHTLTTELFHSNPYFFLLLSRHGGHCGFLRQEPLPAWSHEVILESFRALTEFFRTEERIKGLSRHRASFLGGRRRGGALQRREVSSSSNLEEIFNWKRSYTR
UniProt O15440: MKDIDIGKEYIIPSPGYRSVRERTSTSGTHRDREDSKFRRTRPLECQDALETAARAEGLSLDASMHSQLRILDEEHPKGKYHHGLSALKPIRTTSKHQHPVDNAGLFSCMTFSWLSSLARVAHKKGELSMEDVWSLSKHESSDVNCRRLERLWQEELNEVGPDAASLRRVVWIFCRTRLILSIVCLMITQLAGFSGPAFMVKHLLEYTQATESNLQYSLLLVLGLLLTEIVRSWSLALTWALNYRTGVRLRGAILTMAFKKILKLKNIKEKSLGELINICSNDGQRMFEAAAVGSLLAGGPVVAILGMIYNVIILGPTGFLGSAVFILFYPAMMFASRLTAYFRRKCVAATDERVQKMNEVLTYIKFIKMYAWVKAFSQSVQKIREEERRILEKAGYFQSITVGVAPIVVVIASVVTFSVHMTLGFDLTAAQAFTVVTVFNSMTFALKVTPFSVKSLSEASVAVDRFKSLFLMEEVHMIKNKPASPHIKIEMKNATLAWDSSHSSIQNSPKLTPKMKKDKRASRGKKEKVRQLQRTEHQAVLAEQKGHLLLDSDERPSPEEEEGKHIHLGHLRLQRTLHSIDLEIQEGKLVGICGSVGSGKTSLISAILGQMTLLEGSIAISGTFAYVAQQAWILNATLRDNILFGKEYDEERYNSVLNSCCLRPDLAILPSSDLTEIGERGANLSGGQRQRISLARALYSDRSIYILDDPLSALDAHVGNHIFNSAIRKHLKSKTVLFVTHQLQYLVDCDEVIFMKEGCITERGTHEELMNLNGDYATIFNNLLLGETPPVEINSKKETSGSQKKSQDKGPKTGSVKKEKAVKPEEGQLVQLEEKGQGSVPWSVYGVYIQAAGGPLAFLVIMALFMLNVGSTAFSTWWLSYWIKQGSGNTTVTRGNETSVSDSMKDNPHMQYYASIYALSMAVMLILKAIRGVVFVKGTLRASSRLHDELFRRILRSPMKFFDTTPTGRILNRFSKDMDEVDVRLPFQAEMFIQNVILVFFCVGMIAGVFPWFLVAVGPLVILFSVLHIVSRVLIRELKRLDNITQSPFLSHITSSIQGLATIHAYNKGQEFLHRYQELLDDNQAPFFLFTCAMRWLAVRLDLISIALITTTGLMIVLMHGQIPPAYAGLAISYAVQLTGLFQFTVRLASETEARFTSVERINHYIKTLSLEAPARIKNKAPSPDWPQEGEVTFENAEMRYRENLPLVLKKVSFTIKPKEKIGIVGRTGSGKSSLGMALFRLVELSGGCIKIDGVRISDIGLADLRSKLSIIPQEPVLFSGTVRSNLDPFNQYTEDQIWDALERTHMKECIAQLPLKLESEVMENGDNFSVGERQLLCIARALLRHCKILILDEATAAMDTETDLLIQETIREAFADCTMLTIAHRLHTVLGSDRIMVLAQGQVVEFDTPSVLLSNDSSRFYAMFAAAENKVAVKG
UniProt Q9UKU7: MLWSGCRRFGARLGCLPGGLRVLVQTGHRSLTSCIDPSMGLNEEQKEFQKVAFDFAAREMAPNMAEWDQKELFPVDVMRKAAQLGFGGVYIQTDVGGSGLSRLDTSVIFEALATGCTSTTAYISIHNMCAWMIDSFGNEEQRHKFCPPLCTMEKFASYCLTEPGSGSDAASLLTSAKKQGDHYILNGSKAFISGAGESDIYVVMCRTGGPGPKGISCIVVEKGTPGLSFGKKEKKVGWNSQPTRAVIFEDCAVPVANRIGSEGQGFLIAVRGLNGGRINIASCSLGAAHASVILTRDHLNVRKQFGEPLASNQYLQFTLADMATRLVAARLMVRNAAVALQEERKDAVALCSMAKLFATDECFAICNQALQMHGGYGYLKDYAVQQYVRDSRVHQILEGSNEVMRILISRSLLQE
UniProt Q8N6N7: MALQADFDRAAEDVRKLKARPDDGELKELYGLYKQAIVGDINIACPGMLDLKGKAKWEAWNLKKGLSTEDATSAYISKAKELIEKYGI
A0A494C071, A0A494C071, UniProt A0A494C071, whole entry, looked up: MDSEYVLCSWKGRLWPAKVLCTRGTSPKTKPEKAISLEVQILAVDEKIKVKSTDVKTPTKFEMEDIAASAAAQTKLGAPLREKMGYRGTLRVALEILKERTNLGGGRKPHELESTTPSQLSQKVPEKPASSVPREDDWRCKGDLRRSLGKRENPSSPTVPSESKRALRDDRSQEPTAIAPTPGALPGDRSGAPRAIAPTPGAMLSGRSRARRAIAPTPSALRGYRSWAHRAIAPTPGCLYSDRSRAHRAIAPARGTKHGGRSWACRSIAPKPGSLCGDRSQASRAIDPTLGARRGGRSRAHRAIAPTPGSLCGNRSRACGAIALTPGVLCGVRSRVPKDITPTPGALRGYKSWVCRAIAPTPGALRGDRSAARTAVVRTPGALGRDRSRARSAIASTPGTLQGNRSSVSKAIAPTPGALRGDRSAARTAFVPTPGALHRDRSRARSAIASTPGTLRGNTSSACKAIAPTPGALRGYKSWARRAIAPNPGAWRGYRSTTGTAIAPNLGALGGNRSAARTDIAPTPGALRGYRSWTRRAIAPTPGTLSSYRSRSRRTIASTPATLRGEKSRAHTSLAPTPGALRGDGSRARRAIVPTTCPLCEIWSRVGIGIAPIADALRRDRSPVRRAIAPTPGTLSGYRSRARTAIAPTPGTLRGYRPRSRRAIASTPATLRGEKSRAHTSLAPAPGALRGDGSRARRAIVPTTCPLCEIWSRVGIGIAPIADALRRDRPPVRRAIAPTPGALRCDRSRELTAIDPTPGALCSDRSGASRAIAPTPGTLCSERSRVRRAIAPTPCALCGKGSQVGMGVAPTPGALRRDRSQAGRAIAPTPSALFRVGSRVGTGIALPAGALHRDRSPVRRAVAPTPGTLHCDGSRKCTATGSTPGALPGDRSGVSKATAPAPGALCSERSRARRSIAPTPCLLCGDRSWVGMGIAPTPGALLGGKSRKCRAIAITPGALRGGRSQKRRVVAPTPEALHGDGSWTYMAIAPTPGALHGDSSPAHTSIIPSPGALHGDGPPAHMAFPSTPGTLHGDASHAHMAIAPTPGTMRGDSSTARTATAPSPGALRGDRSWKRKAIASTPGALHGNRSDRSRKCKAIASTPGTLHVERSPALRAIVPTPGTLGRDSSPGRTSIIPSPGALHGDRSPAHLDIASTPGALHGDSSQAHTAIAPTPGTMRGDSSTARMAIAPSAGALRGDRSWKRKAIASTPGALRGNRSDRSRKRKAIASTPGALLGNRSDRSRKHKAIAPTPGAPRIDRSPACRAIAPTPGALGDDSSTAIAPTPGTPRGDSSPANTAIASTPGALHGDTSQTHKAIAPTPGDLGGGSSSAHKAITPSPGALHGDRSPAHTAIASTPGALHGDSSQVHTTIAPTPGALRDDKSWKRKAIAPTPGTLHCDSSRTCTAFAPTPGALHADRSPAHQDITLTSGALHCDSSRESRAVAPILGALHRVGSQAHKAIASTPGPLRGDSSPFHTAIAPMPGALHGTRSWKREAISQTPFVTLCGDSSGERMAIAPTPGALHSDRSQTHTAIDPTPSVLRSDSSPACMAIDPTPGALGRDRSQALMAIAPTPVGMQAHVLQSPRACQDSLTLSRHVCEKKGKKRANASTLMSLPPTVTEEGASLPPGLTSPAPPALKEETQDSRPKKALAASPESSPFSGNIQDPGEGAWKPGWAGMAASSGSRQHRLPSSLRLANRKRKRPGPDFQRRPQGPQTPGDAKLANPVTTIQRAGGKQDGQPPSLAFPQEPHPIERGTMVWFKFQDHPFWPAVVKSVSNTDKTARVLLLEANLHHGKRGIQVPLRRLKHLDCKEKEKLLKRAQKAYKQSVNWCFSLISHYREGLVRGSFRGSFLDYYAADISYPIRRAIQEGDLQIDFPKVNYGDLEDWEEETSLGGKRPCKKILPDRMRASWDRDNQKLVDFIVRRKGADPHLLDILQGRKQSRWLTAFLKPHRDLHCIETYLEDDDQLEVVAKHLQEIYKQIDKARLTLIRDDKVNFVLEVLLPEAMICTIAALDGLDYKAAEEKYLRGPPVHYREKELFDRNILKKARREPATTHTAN

What was measured:
Assay in all cases: log2 fold change, soluble protein after heating vs DMSO (PISA); higher = thermal stabilisation; K562 lysate, 10 uM; active = over 0.2 and 3.5 SD of the protein, either way, in both replicates (recomputed)
[1] = compound: CN1CC[C@H](c2c(O)cc(O)c3c(=O)cc(-c4ccccc4Cl)oc23)[C@H](O)C1 [alvocidib]
Summary of the method: (§1)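 Dounce homogenisation of K562 pellets in PBS pH 7.4 with 1 mM MgCl2 produced a crude extract, used at 1 mg/mL protein. Exposure to 10 μM compound lasted 30 min, and aliquots were then heated for 3 min across 48°C-58°C, pooled and brought to 0.5% NP-40 at 4°C. The supernatant after 21,000xg for 90 min was quantified by TMTpro 16plex LC-MS/MS with channel sums equalised. Duplicate values are given as log-two fold change in thermal stability relative to solvent controls.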

[2] = compound: CN1CCc2c(c3ccccc3n2Cc2ccc(C(=O)NO)cc2)C1 [Tubastatin A]
Summary of the method: as §1

[3] = compound: CNC(=O)C1=CC=CC=C1NC2=NC(=NC=C2Cl)NC3=C(C=C(C=C3)N4CCOCC4)OC
Summary of the method: as §1

[4] = compound: CNC(=O)c1ccc(Nc2ncc(C(F)(F)F)c(NCc3nccnc3N(C)S(C)(=O)=O)n2)cc1 [defactinib]
Summary of the method: as §1

[5] = compound: CNc1nc(-c2ccc3c(N)n[nH]c3c2)cc(N2C[C@@H](C(=O)NC3CCCCC3)CC[C@H]2C)n1
Summary of the method: as §1

[6] = compound: COC(=O)N[C@@H](C)CNc1nccc(-c2cn(C(C)C)nc2-c2cc(Cl)cc(NS(C)(=O)=O)c2F)n1 [encorafenib]
Summary of the method: as §1

[7] = compound: COC(=O)[C@H](CCSC)NC(=O)C1=C(C=C(C=C1)NC[C@H](CS)N)C2=CC=CC=C2
Summary of the method: as §1

[8] = compound: COc1cc(Nc2ncc3c(n2)-c2ccc(Cl)cc2C(c2c(F)cccc2OC)=NC3)ccc1C(=O)O [alisertib]
Summary of the method: as §1

[9] = compound: COc1cc2nc(-c3cc(F)ccc3O)nc(N[C@@H]3CNC[C@H]3C(C)(C)O)c2cc1OC
Summary of the method: as §1

[10] = compound: COc1cc2ncnc(Nc3ccc(F)c(Cl)c3)c2cc1OCCCN1CCOCC1 [gefitinib]
Summary of the method: as §1

[11] = compound: CS(=O)(=O)CCNCc1ccc(-c2ccc3ncnc(Nc4ccc(OCc5cccc(F)c5)c(Cl)c4)c3c2)o1 [lapatinib]
Summary of the method: as §1

[12] = compound: CS(=O)(=O)N1CCN(Cc2cc3nc(-c4cccc5[nH]ncc45)nc(N4CCOCC4)c3s2)CC1 [pictilisib]
Summary of the method: as §1

[13] = compound: C[C@@H](Oc1cc(-c2cnn(C3CCNCC3)c2)cnc1N)c1c(Cl)ccc(F)c1Cl [crizotinib]
Summary of the method: as §1

[14] = compound: C[C@H](C1=CC=C(C=C1)C(=O)NC2=C3C=CNC3=NC=C2)N
Summary of the method: as §1

[15] = compound: C[C@H](Nc1ncnc2nc[nH]c12)c1cc2cccc(Cl)c2c(=O)n1-c1ccccc1 [duvelisib]
Summary of the method: as §1

[16] = compound: Cc1cc(Nc2cc(CN3CCOCC3)c3nc(C)c(Cc4ccc(Cl)cc4F)n3n2)n[nH]1 [gandotinib]
Summary of the method: as §1

[17] = compound: Cc1cc(Nc2cc(N3CCN(C)CC3)nc(Sc3ccc(NC(=O)C4CC4)cc3)n2)n[nH]1 [tozasertib]
Summary of the method: as §1

[18] = compound: Cc1ccc(-n2nc(C(C)(C)C)cc2NC(=O)Nc2ccc(OCCN3CCOCC3)c3ccccc23)cc1 [doramapimod]
Summary of the method: as §1

[19] = compound: Cc1ccc(NC(=O)c2ccc(CN3CC[C@H](N(C)C)C3)c(C(F)(F)F)c2)cc1Nc1nccc(-c2cncnc2)n1 [bafetinib]
Summary of the method: as §1

[20] = compound: Cc1cccc(CC(=O)N2CCc3c2ccc(-c2cn(C)c4ncnc(N)c24)c3F)n1
Summary of the method: as §1

Measured: log2 fold change

AATF (UniProt Q9NY61)
inactive: [1] 0.06 | [2] -0.013 | [3] -0.095 | [4] 0.01 | [5] -0.052 | [6] 0.01 | [7] 0.138 | [8] -0.121 | [9] 0.023 | [10] -0.014 | [11] 0.055 | [12] -0.007 | [13] -0.037 | [14] -0.024 | [15] 0.018 | [16] 0.102 | [17] 0.033 | [18] 0.035 | [19] -0.094 | [20] 0.03

AARS2 (UniProt Q5JTZ9)
inactive: [1] 0.064 | [2] -0.093 | [3] -0.011 | [4] -0.05 | [5] -0.017 | [6] 0.006 | [7] 0.106 | [8] 0.02 | [9] -0.119 | [10] -0.02 | [11] 0.007 | [12] 0.01 | [13] -0.046 | [14] 0.072 | [15] 0.012 | [16] -0.121 | [17] 0.039 | [18] 0.034 | [19] -0.041 | [20] 0.019

ABCA3 (UniProt Q99758)
inactive: [1] 0.109 | [2] 0.188 | [3] -0.017 | [4] -0.037 | [5] 0.317 | [6] -0.12 | [7] 0.025 | [9] -0.09 | [11] 0.025 | [12] -0.028 | [14] -0.156 | [15] 0.061 | [16] 0.113 | [17] -0.16 | [18] 0.203 | [19] -0.006 | [20] -0.075
active: [13] -0.469

ABCC10 (UniProt Q5T3U5)
inactive: [1] -0.07 | [2] 0.013 | [3] -0.011 | [5] -0.194 | [8] -0.022 | [10] 0.052 | [14] -0.126 | [15] -0.156 | [16] 0.048 | [20] -0.02

ABCA7 (UniProt Q8IZY2)
inactive: [5] -0.086 | [13] -0.038 | [15] -0.034 | [18] 0.187

ABCD4 (UniProt O14678)
inactive: [3] -0.022 | [9] 0.017 | [11] -0.029

ACAD10 isoform 5 (UniProt Q6JQN1)
inactive: [1] -0.019 | [2] -0.036 | [3] 0.048 | [5] -0.048 | [6] 0.042 | [7] 0.005 | [8] -0.068 | [9] 0.064 | [10] -0.083 | [11] -0.064 | [13] -0.11 | [14] 0.223 | [15] 0.005 | [16] -0.079 | [17] -0.047 | [18] 0.024 | [20] -0.079

ABRACL (UniProt Q9P1F3)
inactive: [1] -0.016 | [3] 0.121 | [5] 0.166 | [8] 0.091 | [9] -0.081 | [10] -0.207 | [11] 0.154 | [12] -0.075 | [13] -0.105 | [14] -0.053 | [15] -0.239 | [16] -0.003 | [18] -0.014 | [19] 0.09 | [20] -0.047

A0A494C100, A0A494C100
inactive: [1] 0.011 | [4] -0.015 | [5] -0.003 | [12] 0.079 | [14] -0.143 | [15] 0.028 | [16] -0.162 | [19] -0.078 | [20] 0.329

AARS1 (UniProt H3BPK7)
inactive: [4] 0.126

ABCC3 isoform 4 (UniProt O15438)
inactive: [2] 0.028 | [5] -0.054 | [9] -0.015 | [11] -0.15 | [13] -0.048 | [15] 0.047 | [18] -0.01

ACAP3 (UniProt Q96P50)
inactive: [2] -0.335 | [5] 0.115 | [6] -0.064 | [7] 0.145 | [8] 0.087 | [9] -0.012 | [10] 0.033 | [11] 0.092 | [12] 0.175 | [15] 0.056 | [17] -0.023 | [19] 0.107

ACLY isoform 2 (UniProt P53396)
active: [14] -0.423
inactive: [1] -0.147 | [2] 0.017 | [4] 0.007 | [6] 0.072 | [7] 0.009 | [8] -0.089 | [9] 0.071 | [10] -0.407 | [11] 0.012 | [12] -0.03 | [13] 0.078 | [16] 0.323 | [17] 0.055 | [18] -0.119 | [19] 0.004 | [20] 0.277

ACD (UniProt Q96AP0)
inactive: [1] 0.242 | [2] -0.009 | [13] -0.008 | [14] 0.268 | [16] -0.155 | [18] 0.145 | [20] -0.288

ABHD15 (UniProt Q6UXT9)
inactive: [1] -0.04 | [2] 0.056 | [3] 0 | [4] -0.051 | [6] 0.003 | [7] -0.04 | [9] 0.007 | [11] -0.075 | [14] -0.088 | [16] 0.093 | [17] 0.054 | [20] 0.045

ABHD13 (UniProt Q7L211)
inactive: [1] -0.225 | [4] 0.022 | [5] -0.051 | [6] 0 | [7] 0.006 | [8] 0.023 | [9] -0.019 | [10] 0.06 | [11] -0.059 | [12] 0.049 | [13] 0.197 | [15] 0 | [16] 0.193 | [17] -0.044 | [18] -0.104 | [19] -0.197 | [20] 0.184
active: [14] -0.593

ABHD3 (UniProt Q8WU67)
inactive: [2] 0.064

ACE (UniProt P12821)
inactive: [3] 0.096 | [4] -0.017 | [9] -0.176 | [11] 0.073

ABCC5 (UniProt O15440)
inactive: [1] -0.12 | [2] 0.121 | [3] -0.002 | [4] 0.125 | [5] 0.008 | [6] 0.165 | [7] -0.032 | [9] -0.012 | [11] 0.013 | [12] 0.13 | [13] 0.014 | [14] -0.038 | [15] -0.045 | [16] 0.043 | [17] -0.016 | [18] 0.081 | [19] -0.117 | [20] 0.045

ACBD5 (UniProt Q5T8D3)
inactive: [1] 0.019 | [2] 0.064 | [3] -0.107 | [5] -0.064 | [9] -0.014 | [11] 0.022 | [14] 0.019 | [15] -0.054 | [16] 0.02 | [20] 0.243

A2ML1 (UniProt A8K2U0)
inactive: [1] -0.061 | [2] 0.297 | [3] -0.225 | [9] 0.041 | [11] -0.057 | [12] 0.477 | [13] 0.006 | [14] -0.039 | [16] 0.542 | [18] -0.055 | [19] 0.067 | [20] 0.074

ABI1 isoform 6 (UniProt Q8IZP0)
inactive: [6] -0.212 | [7] 0.114 | [9] 0.023 | [11] 0.007 | [17] -0.061

ACAD8 (UniProt Q9UKU7)
inactive: [1] -0.056 | [4] -0.065 | [5] -0.052 | [9] 0.095 | [11] 0.115 | [12] -0.153 | [13] -0.033 | [14] -0.091 | [15] -0.021 | [16] 0.012 | [18] 0.081 | [19] 0.006 | [20] 0.126

ACBD7 (UniProt Q8N6N7)
inactive: [3] 0.102 | [5] 0.041 | [9] -0.022 | [11] -0.119 | [15] 0.019

A0A494C071, A0A494C071
inactive: [1] -0.065 | [5] -0.077 | [12] 0.003 | [14] -0.209 | [15] 0.107 | [16] 0.273 | [19] -0.34 | [20] 0.291

Two successive entries out of the list so far, for reference:
ACAD8 (UniProt Q9UKU7)
inactive: [1] -0.056 | [4] -0.065 | [5] -0.052 | [9] 0.095 | [11] 0.115 | [12] -0.153 | [13] -0.033 | [14] -0.091 | [15] -0.021 | [16] 0.012 | [18] 0.081 | [19] 0.006 | [20] 0.126

ACBD7 (UniProt Q8N6N7)
inactive: [3] 0.102 | [5] 0.041 | [9] -0.022 | [11] -0.119 | [15] 0.019

(further entries)

ABCA8 isoform 3 (UniProt O94911)
inactive: [1] 0.013 | [3] -0.073 | [9] -0.057 | [11] 0.076 | [13] -0.143 | [14] -0.087 | [16] -0.089 | [18] 0.067 | [20] 0.037
